Test results: patent US11752155B2, “Treatment of autism spectrum disorders, obsessive-compulsive disorder and anxiety disorders” (Rugen Holdings (Cayman) Limited, priority 2016, dated 2023)
Certain results were filed several times, with different values. The list is limited to them. The source may hold further records. The values listed for one entry differ for a reason that is not stated; dose, time, organism, isomer or construct need not be as stated for each record.

The chains behind the UniProt entries cited, without tags or fusion partners. Residues count along the entry.
UniProt Q00960, 27-1482 limits assumed: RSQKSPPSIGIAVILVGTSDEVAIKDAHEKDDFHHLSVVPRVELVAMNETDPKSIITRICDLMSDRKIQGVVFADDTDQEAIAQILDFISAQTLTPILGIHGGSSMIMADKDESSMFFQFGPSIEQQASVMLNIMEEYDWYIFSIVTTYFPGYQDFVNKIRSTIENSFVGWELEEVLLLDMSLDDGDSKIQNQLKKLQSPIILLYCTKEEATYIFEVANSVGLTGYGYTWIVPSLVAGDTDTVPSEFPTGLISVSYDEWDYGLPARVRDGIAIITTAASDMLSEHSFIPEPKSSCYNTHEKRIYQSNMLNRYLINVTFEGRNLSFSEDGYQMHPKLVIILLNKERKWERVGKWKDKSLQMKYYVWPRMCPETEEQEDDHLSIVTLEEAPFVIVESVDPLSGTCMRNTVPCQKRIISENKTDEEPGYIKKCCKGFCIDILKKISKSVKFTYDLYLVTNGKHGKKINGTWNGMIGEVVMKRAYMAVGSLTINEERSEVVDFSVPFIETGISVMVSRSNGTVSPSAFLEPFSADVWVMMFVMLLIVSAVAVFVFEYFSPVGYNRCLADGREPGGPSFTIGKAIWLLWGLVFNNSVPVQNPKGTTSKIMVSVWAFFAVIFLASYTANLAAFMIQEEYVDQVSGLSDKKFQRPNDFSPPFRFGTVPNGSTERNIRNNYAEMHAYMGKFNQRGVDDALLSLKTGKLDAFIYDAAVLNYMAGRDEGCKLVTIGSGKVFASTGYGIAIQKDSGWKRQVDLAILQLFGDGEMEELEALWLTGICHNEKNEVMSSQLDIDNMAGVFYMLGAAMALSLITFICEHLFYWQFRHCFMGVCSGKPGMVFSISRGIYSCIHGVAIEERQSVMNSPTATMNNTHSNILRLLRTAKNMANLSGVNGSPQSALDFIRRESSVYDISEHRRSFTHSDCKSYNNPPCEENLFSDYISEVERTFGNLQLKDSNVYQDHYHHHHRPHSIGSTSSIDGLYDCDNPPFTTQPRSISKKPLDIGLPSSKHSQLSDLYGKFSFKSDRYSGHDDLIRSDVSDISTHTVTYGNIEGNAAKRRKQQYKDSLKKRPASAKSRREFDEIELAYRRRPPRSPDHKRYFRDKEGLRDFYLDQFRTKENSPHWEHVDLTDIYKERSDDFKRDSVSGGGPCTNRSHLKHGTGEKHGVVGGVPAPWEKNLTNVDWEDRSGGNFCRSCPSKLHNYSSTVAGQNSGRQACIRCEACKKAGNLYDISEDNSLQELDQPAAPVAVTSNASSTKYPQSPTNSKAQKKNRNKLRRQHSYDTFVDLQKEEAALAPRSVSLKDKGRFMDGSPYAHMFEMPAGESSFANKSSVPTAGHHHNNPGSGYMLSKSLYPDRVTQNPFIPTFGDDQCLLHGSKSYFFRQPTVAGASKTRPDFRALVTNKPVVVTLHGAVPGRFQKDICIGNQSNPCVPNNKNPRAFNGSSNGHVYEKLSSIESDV

Molecular target: native rat brain NR2B receptors (Rattus norvegicus (Rat), UniProt P35439+Q00960)
Assay: NR2B radioligand binding assay in rat brain using [3H] (E)-N1-(2-methoxybenzyl)-cinnamidine
Details: read-out: inhibition constant (Ki), independent assays; high affinity site, rat brain membranes; tested as the radiolabelled form

Ki: 0.193, 0.176, 0.41, 0.087 nM
SMILES: COc1ccccc1CNC(=N)/C=C/c1ccccc1 [(E)-N1-(2-methoxybenzyl)-cinnamidine, reference compound]
